To fix the notation:
B1: TWIST2 Q119X mutant protein, Myc-tagged (domain or fragment, UniProt Q8WVJ9 1-118)
chain: MEEGSSSPVSPVDSLGTSEEELERQPKRFGRKRRYSKKSSEDGSPTPGKRGKKGSPSAQSFEELQSQRILANVRERQRTQSLNEAFAALRKIIPTLPSDKLSKIQTLKLAARYIDFLY
B2: human wild-type TWIST2, N-terminally Myc-tagged (protein, UniProt Q8WVJ9 1-160)
chain: MEEGSSSPVSPVDSLGTSEEELERQPKRFGRKRRYSKKSSEDGSPTPGKRGKKGSPSAQSFEELQSQRILANVRERQRTQSLNEAFAALRKIIPTLPSDKLSKIQTLKLAARYIDFLYQVLQSDEMDNKMTSCSYVAHERLSYAFSVWRMEGAWSMSASH

Amino acid sequences for entries named in this document (tags omitted).
UniProt P15923: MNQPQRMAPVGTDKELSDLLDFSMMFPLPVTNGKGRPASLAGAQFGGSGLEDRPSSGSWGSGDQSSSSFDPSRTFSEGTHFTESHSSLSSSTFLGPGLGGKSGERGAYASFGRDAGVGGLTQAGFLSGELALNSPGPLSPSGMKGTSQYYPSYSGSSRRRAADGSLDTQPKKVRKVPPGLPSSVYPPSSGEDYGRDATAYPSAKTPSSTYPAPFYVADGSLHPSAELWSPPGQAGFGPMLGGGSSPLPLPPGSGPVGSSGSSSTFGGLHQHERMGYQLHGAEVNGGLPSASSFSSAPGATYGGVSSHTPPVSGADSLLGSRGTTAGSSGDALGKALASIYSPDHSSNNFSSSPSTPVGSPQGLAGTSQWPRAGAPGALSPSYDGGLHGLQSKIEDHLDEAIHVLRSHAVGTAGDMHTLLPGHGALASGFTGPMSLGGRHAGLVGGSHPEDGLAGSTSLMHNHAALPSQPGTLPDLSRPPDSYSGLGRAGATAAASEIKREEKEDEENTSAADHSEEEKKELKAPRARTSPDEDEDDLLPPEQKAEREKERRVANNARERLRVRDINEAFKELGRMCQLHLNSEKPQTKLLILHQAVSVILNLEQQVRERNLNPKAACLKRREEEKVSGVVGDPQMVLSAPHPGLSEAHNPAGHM
UniProt Q15672: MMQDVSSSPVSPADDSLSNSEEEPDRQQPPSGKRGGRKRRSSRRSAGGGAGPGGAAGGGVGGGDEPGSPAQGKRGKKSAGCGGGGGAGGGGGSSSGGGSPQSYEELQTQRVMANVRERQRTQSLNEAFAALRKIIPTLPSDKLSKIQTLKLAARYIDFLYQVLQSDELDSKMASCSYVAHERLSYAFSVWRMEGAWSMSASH

This note sets out measurements from paper PMC10530651, “Mechanisms of Regulation of the CHRDL1 Gene by the TWIST2 and ADD1/SREBP1c Transcription Factors”.

Results are given in words; binding and its absence hold for the method and conditions named. Some entries that bind do so weakly or less than the wild type. Where a sequence is shown, tags or fusion partners need not be part of it.

In the test the target is E12 (UniProt P15923). In words: native gel or EMSA; TWIST1, TWIST2 or Q119X plasmid and E12 plasmid combined in one in vitro TnT reaction; products incubated with 32P-labelled CHRDL1 probe #5 in 20 mM HEPES pH 7.9, 60 mM KCl, 1 mM MgCl2, 0.5 mM DTT, 10% glycerol; 6% native polyacrylamide gel at 4 °C; specific (CH2700EA) and non-specific (SP1) oligonucleotide competitors, anti-Myc supershift; heterodimers seen as DNA-bound complexes. A general note: Mobility shift assays separate free from complexed probe on a gel.
Turning to “human TWIST1, Myc-tagged (from UniProt Q15672 1-202)”, the binding entry was “binds”. In the case of B1, the binding result was “binds”. Take B2: the binding entry was “binds”.
